Results published in patent US20210318312A1.
Results are given in words; binding and its absence hold for the method and conditions named. In cells and extracts the contact can be indirect. Some binding calls cover weakened binding; strength is not graded here. Where a sequence is shown, tags or fusion partners need not be part of it.

The chains behind the UniProt entries cited, without tags or fusion partners. Residues count along the entry.
UniProt P14735: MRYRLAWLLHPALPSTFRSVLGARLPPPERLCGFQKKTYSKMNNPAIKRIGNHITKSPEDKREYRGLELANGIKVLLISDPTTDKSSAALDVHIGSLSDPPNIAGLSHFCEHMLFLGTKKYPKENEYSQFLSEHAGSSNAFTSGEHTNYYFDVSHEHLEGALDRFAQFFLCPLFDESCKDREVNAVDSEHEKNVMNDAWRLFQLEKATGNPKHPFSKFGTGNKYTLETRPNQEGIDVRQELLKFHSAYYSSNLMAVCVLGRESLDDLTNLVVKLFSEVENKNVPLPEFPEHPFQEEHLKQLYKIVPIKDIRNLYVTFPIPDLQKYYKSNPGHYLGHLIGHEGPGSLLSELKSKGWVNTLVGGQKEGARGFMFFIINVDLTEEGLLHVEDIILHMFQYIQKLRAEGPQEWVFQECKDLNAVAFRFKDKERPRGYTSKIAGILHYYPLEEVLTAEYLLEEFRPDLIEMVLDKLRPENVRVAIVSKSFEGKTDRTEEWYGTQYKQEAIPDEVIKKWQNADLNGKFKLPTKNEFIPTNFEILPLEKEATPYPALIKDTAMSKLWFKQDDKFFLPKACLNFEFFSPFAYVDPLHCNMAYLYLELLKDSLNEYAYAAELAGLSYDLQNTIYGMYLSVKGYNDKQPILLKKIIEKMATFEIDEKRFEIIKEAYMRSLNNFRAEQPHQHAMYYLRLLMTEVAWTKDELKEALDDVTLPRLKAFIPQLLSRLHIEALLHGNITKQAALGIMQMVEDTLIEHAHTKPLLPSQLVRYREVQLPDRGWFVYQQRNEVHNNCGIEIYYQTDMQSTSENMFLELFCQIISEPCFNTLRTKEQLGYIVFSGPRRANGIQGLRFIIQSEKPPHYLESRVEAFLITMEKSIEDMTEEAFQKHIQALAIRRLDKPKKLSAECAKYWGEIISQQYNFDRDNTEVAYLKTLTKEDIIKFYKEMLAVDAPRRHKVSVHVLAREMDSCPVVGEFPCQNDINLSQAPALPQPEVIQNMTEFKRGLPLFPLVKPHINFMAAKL
UniProt P00367, residues 54-558: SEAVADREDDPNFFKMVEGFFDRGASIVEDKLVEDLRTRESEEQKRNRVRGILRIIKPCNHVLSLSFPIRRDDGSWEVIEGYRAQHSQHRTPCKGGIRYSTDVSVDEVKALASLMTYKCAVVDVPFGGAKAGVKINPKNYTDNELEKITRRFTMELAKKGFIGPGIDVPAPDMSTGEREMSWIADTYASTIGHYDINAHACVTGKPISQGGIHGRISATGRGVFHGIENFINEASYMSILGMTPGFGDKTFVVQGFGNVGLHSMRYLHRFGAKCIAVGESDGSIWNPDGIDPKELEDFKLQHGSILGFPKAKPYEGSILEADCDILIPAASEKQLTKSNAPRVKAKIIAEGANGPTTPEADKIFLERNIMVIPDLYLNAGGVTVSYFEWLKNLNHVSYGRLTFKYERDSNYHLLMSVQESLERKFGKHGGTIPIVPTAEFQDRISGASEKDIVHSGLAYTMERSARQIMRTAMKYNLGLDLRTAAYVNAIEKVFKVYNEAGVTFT

Legend:
Assay in all cases: IP-MS of SIRT4-EGFP from MRC5 mitochondria, SAINT scoring
[1] = biological target: T1, MLYCD (malonyl-CoA decarboxylase), endogenous (human) (UniProt O95822)
T1 sequence (looked up): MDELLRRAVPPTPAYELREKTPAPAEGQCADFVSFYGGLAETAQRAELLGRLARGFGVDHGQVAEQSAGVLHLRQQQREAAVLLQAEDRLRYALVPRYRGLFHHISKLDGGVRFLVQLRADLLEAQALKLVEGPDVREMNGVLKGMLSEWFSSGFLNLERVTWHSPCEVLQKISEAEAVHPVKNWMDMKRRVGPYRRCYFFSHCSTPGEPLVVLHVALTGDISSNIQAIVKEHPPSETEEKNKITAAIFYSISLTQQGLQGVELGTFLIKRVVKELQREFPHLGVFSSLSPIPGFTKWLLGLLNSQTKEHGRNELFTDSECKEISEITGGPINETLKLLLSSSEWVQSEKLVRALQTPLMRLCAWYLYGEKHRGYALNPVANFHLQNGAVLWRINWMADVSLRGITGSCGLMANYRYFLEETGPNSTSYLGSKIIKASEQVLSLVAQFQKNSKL

IDE, endogenous (human) = IDE, endogenous (human) (UniProt P14735)
[2] = biological target: glutamate dehydrogenase (GLUD1), endogenous (human) (UniProt P00367)

Measured: binding

B1: SIRT4-EGFP (enzyme, not shown: large carriers)
chain: IGLFVPASPPLDPEKVKELQRFITLSKRLLVMTGAGISTESGIPDYRSEKVGLYARTDRRPIQHGDFVRSAPIRQRYWARNFVGWPQFSSHQPNPAHWALSTWEKLGKLYWLVTQNVDALHTKAGSRRLTELHGCMDRVLCLDCGEQTPRGVLQERFQVLNPTWSAEAHGLAPDGDVFLSEEQVRSFQVPTCVQCGGHLKPDVVFFGDTVNPDKVDFVHKRVKEADSLLVVGSSLQVYSGYRFILTAWEKKLPIAILNIGPTRSDDLACLKLNSRCGELLPLIDPC
binds: all assays above
